Reference: publication PMC11446459

Legend:
Test in all cases: two-hybrid; Gal4 system (Matchmaker Gold); C1-FDX, ACP1, ACP2 in pGADT7, CI and CV subunits in pGBKT7; yeast AH109; growth on SD/-Trp/-Leu/-His/-Ade/+ x-α-gal for 4 days at 30°C
[1] = target: T1, ACP1, Gal4 DNA-binding domain fusion (Arabidopsis) (UniProt P53665)
T1 sequence: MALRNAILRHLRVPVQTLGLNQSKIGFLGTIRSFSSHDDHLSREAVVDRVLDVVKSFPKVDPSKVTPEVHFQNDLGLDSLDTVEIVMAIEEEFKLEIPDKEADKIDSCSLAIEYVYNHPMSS

[2] = target: T2, ACP2, Gal4 DNA-binding domain fusion (Arabidopsis) (UniProt O80800)
T2 sequence: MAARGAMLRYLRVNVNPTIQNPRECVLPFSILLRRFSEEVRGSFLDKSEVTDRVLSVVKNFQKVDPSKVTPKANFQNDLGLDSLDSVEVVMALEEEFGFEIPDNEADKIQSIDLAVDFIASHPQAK

[3] = target: T3, CA1, CA module subunit of complex I, Gal4 DNA-binding domain fusion (Arabidopsis) (UniProt Q9FWR5)
T3 sequence: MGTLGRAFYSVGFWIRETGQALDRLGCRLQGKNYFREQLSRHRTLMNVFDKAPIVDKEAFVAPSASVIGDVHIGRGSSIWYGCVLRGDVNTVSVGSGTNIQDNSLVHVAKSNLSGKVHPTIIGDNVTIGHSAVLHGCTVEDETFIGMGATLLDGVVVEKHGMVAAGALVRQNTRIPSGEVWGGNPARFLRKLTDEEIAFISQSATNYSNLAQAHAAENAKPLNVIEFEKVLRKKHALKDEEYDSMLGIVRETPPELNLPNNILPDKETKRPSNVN

[4] = target: T4, CA2, CA module subunit of complex I, Gal4 DNA-binding domain fusion (Arabidopsis) (UniProt Q9C6B3)
T4 sequence: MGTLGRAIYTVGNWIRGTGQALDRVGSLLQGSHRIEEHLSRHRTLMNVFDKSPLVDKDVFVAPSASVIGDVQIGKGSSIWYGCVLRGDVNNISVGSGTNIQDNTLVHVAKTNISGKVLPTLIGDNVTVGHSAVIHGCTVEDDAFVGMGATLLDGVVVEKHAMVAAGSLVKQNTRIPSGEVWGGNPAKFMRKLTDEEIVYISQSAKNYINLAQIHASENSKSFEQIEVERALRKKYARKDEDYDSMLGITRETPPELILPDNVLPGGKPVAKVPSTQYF

[5] = target: T5, CA3, CA module subunit of complex I, Gal4 DNA-binding domain fusion (Arabidopsis) (UniProt Q94AU7)
T5 sequence: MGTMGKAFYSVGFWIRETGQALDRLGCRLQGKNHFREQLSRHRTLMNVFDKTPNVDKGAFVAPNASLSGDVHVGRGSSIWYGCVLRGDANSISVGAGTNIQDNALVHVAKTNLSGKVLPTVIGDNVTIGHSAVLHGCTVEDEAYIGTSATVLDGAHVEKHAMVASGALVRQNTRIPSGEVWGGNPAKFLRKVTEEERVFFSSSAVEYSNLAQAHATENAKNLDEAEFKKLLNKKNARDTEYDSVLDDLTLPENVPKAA

[6] = target: T6, δ subunit of the F1 module of complex V, Gal4 DNA-binding domain fusion (Arabidopsis) (UniProt Q96252)
T6 sequence: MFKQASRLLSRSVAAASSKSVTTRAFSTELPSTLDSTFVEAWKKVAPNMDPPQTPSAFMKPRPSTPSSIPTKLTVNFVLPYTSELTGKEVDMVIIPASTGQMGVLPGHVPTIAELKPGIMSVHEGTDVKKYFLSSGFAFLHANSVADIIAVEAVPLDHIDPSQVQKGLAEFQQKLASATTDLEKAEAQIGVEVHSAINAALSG

Measured: binding

C1-FDX (Complex I-ferredoxin), Gal4 activation domain fusion (Arabidopsis)
binds weakly: [1]
binds: all other assays above

These are yes or no findings as the source states them, for the method shown. Binding calls can cover weak binding; strength is not graded here. Where a sequence is shown, tags or fusion partners need not be part of it.
